# The other results are listed elsewhere or left out. These are further read-outs of the screen, such as a control signal, another cell line or another target. No call is given for them. Compounds called inactive in the main read-out are mostly missing here. Potencies come from curve fits of mixed quality, noted in brackets.
# Assay: qHTS Assay for Lipid Storage Modulators in Drosophila S3 Cells;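 on cell number change: cells counted by Cell Tracker Red CMTPX staining in the red channel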
# Settings: BODIPY lipid droplet fluorescence, 18-24 h; for cell number change: measured here: cell count max response, cells fed with added oleic acid
# Outline: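 Drosophila S3 cells got compounds at several concentrations plus oleic acid (400 uM solution). Laser-scanning cytometry with 488 nm excitation read lipid droplets at 500-530 nm and cells at 575-640 nm. Percent activity was relative to 20 uM Triacsin C.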
# [1] = measured here: lipid fluorescence (Fed channel) AC50, cells fed with added oleic acid
# [2] = measured here: cell number channel AC50, cells fed with added oleic acid
structure (smiles),measurement,setting,value
COC(=O)CC/C(O)=C1\C(=O)CC(C)(C)CC1=NCc1nc2ccccc2[nH]1,cell number change,,29.8%
same,AC50,[1],"32.6 µM [rising, single point]"
CC1=CC(C)(C)N=C(NC#N)N1,cell number change,,-8.28%
same,AC50,[1],"18.4 µM [falling, partial curve, poor fit]"
Cc1cccc2cc(CN(Cc3ccco3)C(=O)c3ccco3)c(=O)[nH]c12,cell number change,,-21.9%
same,AC50,[2],"4.11 µM [rising, single point]"
Cc1cc(C)c(C#N)c(SCCS(=O)(=O)c2ccc(C(C)(C)C)cc2)n1,cell number change,,17.5%
CCn1cc(Cl)c(C(=O)NNC(=O)CCn2cc([N+](=O)[O-])cn2)n1,cell number change,,-4.59%
same,AC50,[1],"0.0058 µM [falling, full curve, poor fit]"
Cc1cc2oc(=O)cc(-c3cc4ccccc4o3)c2cc1O,cell number change,,0.989%
N#CCCn1cnc2ccccc21,cell number change,,-107%
COc1ccc(Cn2nnnc2C(c2ccccc2Cl)N2CCN(C)CC2)cc1 (centres undefined),cell number change,,-6.9%
same,AC50,[1],"29.1 µM [falling, single point]"
CCNC(=S)N=Nc1c(O)[nH]c2ccc([N+](=O)[O-])cc12,cell number change,,14.1%
same,AC50,[2],"1.84 µM [rising, single point]"
O=C(CNS(=O)(=O)c1ccc(Br)cc1)NCc1cccnc1,cell number change,,27%
same,AC50,[1],"29.1 µM [rising, single point]"
CCCCC(=O)Nc1ccc(NC(=O)c2ccc([N+](=O)[O-])cc2Cl)cc1OC,cell number change,,-16.7%
same,AC50,[2],"4.61 µM [rising, partial curve, poor fit]"
same,AC50,[1],"9.2 µM [rising, partial curve]"
Cc1c(N2C(=O)C(=O)/C(=C(/O)c3ccc(Cl)cc3)C2c2ccccc2)c(=O)n(-c2ccccc2)n1C (centres undefined),cell number change,,-7.89%
same,AC50,[1],"0.092 µM [falling, full curve, poor fit]"
CCc1nc(SCc2ccc(OCC(C)C)cc2)n[nH]1,cell number change,,-53.8%
same,AC50,[2],"16.4 µM [falling, partial curve]"
same,AC50,[1],"3.66 µM [falling, full curve]"
c1ccc(Cc2nc3ccccc3[nH]2)cc1,cell number change,,3.58%
O=C(CCCn1cncn1)N1CCCC(Nc2ccc(F)cc2)C1 (centres undefined),cell number change,,8.96%
same,AC50,[1],"0.00461 µM [falling, full curve, poor fit]"
Nn1c(SCC(=O)NCCc2ccc(F)cc2)nnc1C1CCCCC1,cell number change,,-6.33%
same,AC50,[1],"0.013 µM [rising, full curve, poor fit]"
CC(C)(C)OC(=O)N1CCC(C(=O)NCC2CCCO2)CC1 (centres undefined),cell number change,,8.99%
same,AC50,[1],"3.26 µM [rising, full curve, poor fit]"
Cc1nn(-c2ccccc2)c(C)c1-c1nnc(-c2c(C)nn(-c3ccccc3)c2C)o1,cell number change,,-41.3%
same,AC50,[2],"4.11 µM [falling, partial curve, poor fit]"
same,AC50,[1],"3.66 µM [falling, partial curve]"
CCCn1c(N/N=C(C)\C=C\c2ccccc2)nc2c1c(=O)[nH]c(=O)n2C,cell number change,,-24.7%
same,AC50,[2],"0.184 µM [rising, full curve]"
same,AC50,[1],"0.184 µM [rising, full curve, poor fit]"
CC(C)(C)NC(=S)NNC(=O)c1ccc2ncccc2c1,cell number change,,-15.1%
same,AC50,[2],"0.82 µM [falling, single point]"
CCc1noc(C)c1C(=O)Nc1cc(S(=O)(=O)N2CCCCC2)ccc1N(C)C,cell number change,,17.7%
same,AC50,[1],"18.4 µM [rising, single point]"
O=C(Nc1ccc(-c2nnc3n2CCCCC3)cc1)c1cc2ccccc2o1,AC50,[2],"0.82 µM [rising, partial curve]"
same,AC50,[1],"0.326 µM [rising, full curve]"
O=C(/C=C/c1ccc(Cl)cc1Cl)N1CCN(c2ccc([N+](=O)[O-])c(N3CCOCC3)c2)CC1,cell number change,,6.25%
same,AC50,[1],"0.116 µM [rising, full curve, poor fit]"
CCN(CC)S(=O)(=O)c1ccc(C)c(NC(=O)Cn2c(=O)cnc3ccccc32)c1,cell number change,,-2.11%
same,AC50,[1],"6.51 µM [rising, single point]"
COc1ccc(Cl)cc1N/C(N)=N/c1nc(C)cc(=O)[nH]1,cell number change,,62.9%
same,AC50,[2],"18.4 µM [rising, single point]"
CCOc1ccccc1NC(=O)CS(=O)(=O)c1cn(CC(=O)N2CCOCC2)c2ccccc12,cell number change,,-19.3%
same,AC50,[1],"29.1 µM [falling, single point]"
CCn1c(Cc2ccccc2)nnc1SCC(=O)Nc1nnc(-c2ccccc2)s1,cell number change,,-2.55%
same,AC50,[1],"6.51 µM [rising, full curve, poor fit]"
O=C(Nc1cccc(C(=O)N2CCOCC2)c1)c1cccnc1,AC50,[2],"0.00651 µM [falling, full curve, poor fit]"
COc1cc(C(=O)Nc2nnc(SC)s2)c([N+](=O)[O-])cc1OC,cell number change,,0.228%
same,AC50,[2],"1.3 µM [falling, partial curve]"
same,AC50,[1],"3.66 µM [falling, single point]"
O=C(/C=C/c1ccccc1)OCCCCN=C1NS(=O)(=O)c2ccccc21,cell number change,,-8.92%

# A second format for part of the listing above.
structure (smiles) | measurement | setting | value
Cc1cccc2cc(CN(Cc3ccco3)C(=O)c3ccco3)c(=O)[nH]c12 | AC50 | [2] | 4.11 µM [rising, single point]
Cc1cc(C)c(C#N)c(SCCS(=O)(=O)c2ccc(C(C)(C)C)cc2)n1 | cell number change |  | 17.5%
CCn1cc(Cl)c(C(=O)NNC(=O)CCn2cc([N+](=O)[O-])cn2)n1 | cell number change |  | -4.59%
same | AC50 | [1] | 0.0058 µM [falling, full curve, poor fit]
Cc1cc2oc(=O)cc(-c3cc4ccccc4o3)c2cc1O | cell number change |  | 0.989%
